Assay results as given in publication PMC6459503.
These are yes or no findings as the source states them, for the method shown. In cells and extracts the contact can be indirect. Binding can be weak; no strength is given.

Chains of the proteins cited; added tags and fusions are not shown. Lines headed by an entry give the natural chain unless they say otherwise; changes in a name come on top.
UniProt Q96EB6: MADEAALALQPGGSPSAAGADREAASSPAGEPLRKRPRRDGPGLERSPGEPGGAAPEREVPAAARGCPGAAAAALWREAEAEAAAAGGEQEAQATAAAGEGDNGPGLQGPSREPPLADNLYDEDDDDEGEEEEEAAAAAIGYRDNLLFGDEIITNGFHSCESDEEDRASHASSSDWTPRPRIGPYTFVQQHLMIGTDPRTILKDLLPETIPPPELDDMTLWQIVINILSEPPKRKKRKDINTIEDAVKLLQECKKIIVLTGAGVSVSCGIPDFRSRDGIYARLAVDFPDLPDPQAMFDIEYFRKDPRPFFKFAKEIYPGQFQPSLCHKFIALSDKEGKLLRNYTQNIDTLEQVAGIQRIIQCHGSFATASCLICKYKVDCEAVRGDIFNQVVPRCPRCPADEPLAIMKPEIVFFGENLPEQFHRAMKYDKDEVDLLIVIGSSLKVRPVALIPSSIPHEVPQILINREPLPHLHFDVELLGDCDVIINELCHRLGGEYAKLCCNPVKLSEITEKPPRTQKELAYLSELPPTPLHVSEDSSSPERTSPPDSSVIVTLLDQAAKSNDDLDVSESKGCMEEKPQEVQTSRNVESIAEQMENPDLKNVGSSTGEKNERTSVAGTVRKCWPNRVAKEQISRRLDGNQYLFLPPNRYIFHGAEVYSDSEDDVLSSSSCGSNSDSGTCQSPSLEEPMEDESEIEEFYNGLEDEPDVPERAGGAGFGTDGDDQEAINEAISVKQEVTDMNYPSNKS
UniProt Q13547: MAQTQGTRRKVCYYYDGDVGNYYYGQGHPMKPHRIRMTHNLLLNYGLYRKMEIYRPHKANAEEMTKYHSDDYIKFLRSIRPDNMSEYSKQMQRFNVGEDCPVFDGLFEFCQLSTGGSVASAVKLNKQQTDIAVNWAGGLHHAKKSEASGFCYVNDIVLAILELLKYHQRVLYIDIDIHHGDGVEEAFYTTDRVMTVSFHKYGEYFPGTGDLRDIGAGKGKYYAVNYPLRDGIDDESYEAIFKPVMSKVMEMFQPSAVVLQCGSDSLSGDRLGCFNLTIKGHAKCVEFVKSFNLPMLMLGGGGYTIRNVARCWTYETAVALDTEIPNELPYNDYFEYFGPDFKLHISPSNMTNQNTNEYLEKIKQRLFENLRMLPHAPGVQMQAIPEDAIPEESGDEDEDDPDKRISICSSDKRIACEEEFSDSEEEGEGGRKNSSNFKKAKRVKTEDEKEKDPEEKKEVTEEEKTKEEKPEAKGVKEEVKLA

Legend:
Assay in all cases: co-IP; HEK293T co-transfected 1:1 for 48 h; lysis in 20 mM Tris-HCl pH 7.5, 150 mM NaCl, 1% Triton; IP with Flag antibody (IgG as control) overnight at 4°C, Protein A/G beads; blot for GFP, reprobed for Flag
[1] = molecular target: Flag-tagged SIRT1 deletion construct Δ5 (UniProt Q96EB6)
[2] = molecular target: Flag-tagged SIRT1 deletion construct Δ4 (UniProt Q96EB6)
[3] = molecular target: Flag-tagged SIRT1 deletion construct Δ7 (UniProt Q96EB6)
[4] = molecular target: Flag-tagged SIRT1 deletion construct Δ6 (UniProt Q96EB6)
[5] = molecular target: Flag-tagged SIRT1 deletion construct Δ2 (UniProt Q96EB6)
[6] = molecular target: Flag-tagged SIRT1 deletion construct Δ3 (UniProt Q96EB6)
[7] = molecular target: Flag-tagged SIRT1 deletion construct Δ10 (UniProt Q96EB6)
[8] = molecular target: Flag-tagged SIRT1 deletion construct Δ1 (UniProt Q96EB6)
[9] = molecular target: Flag-tagged SIRT1 deletion construct Δ9 (UniProt Q96EB6)

Measured: binding

HDAC1-GFP (from UniProt Q13547 1-482)
binds: [1] | [2] | [3] | [4] | [5] | [6] | [7] | [8] | [9]

HDAC1-Δ56-GFP (from UniProt Q13547 57-482) (domain or fragment)
binds: [1] | [2] | [3] | [4] | [5] | [6] | [7] | [8] | [9]
